PubChem BioAssay AID1259308, NCATS – 2017
Screen: 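Genes whose loss raises luciferase production in HEK293 cells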 (primary screen). Cells: human HEK293 embryonic kidney cells stably expressing firefly luciferase (HEK-CMV-Luc2-Hygro). Reagents: single siRNA against human genes, 0.8 pmol siRNA per well. Timing: 72 h. Read-out: 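Luciferase light (ONE-Glo) measured on one replicate plate set and viability (CellTiter-Glo) on the other, scaled to a negative control siRNA, with robust z-scores and luciferase per cell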. Reading the numbers: total luciferase, z-score and total luciferase, % of control: higher = more reporter protein produced. Active means: 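Active when the median/MAD z-score for overall luciferase is greater than 3; a gene was taken forward for validation with new siRNAs if at least two of its three siRNAs passed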. Calls: active = raised luciferase; inactive = no rise.
The whole screen tested about 59,000 reagents; shown is an unselected part. Over the whole deposit, about 1,510 (2.6%) are marked active. 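Calls use total luciferase alone and ignore viability, so some active siRNAs may act by altering cell number.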 The numbers tell different reagents against one gene apart. Further read-outs or replicates are left out here.

With PPIAP74 (peptidylprolyl isomerase A pseudogene 74) #1, what does the deposit list?
total luciferase, z-score: -2.31; total luciferase, % of control: 35.9; Outcome: inactive

For PPIAP74 (peptidylprolyl isomerase A pseudogene 74) #2, what does the deposit list?
total luciferase, z-score: 0.294; total luciferase, % of control: 87.7; Outcome: inactive

With PPIAP74 (peptidylprolyl isomerase A pseudogene 74) #3, how do the results read?
total luciferase, z-score: 0.215; total luciferase, % of control: 86.2; Outcome: inactive

For POMGNT2 #1, what was measured?
total luciferase, z-score: 0.172; total luciferase, % of control: 85.3; Outcome: inactive

How did the screen score POMGNT2 #2?
total luciferase, z-score: -1.97; total luciferase, % of control: 42.6; Outcome: inactive

What is on record for POMGNT2 #3?
total luciferase, z-score: 0.768; total luciferase, % of control: 97.2; Outcome: inactive

For PABPC4 (poly(A) binding protein cytoplasmic 4) #1, how do the results read?
total luciferase, z-score: -0.761; total luciferase, % of control: 66.7; Outcome: inactive

What did the screen give for PABPC4 (poly(A) binding protein cytoplasmic 4) #2?
total luciferase, z-score: -0.733; total luciferase, % of control: 67.3; Outcome: inactive

For PABPC4 (poly(A) binding protein cytoplasmic 4) #3, what does the deposit list?
total luciferase, z-score: -0.619; total luciferase, % of control: 69.6; Outcome: inactive

For PTPN7 (protein tyrosine phosphatase non-receptor type 7) #1, what was measured?
total luciferase, z-score: 0.688; total luciferase, % of control: 95.6; Outcome: inactive

What did the screen give for PTPN7 (protein tyrosine phosphatase non-receptor type 7) #2?
total luciferase, z-score: 1.01; total luciferase, % of control: 102; Outcome: inactive

Which result is listed for PTPN7 (protein tyrosine phosphatase non-receptor type 7) #3?
total luciferase, z-score: -0.644; total luciferase, % of control: 69.1; Outcome: inactive

Which result is listed for LRRC66 (leucine rich repeat containing 66) #1?
total luciferase, z-score: -1.06; total luciferase, % of control: 60.8; Outcome: inactive

For LRRC66 (leucine rich repeat containing 66) #2, what was measured?
total luciferase, z-score: 0.206; total luciferase, % of control: 86; Outcome: inactive

What is on record for LRRC66 (leucine rich repeat containing 66) #3?
total luciferase, z-score: -1.79; total luciferase, % of control: 46.3; Outcome: inactive

For C11orf42 (chromosome 11 open reading frame 42) #1, how do the results read?
total luciferase, z-score: 0.746; total luciferase, % of control: 96.7; Outcome: inactive

What is on record for C11orf42 (chromosome 11 open reading frame 42) #2?
total luciferase, z-score: -0.267; total luciferase, % of control: 76.6; Outcome: inactive

What is on record for C11orf42 (chromosome 11 open reading frame 42) #3?
total luciferase, z-score: 1.12; total luciferase, % of control: 104; Outcome: inactive

How did the screen score DNM3 (dynamin 3) #1?
total luciferase, z-score: -0.744; total luciferase, % of control: 67.1; Outcome: inactive

Which result is listed for DNM3 (dynamin 3) #2?
total luciferase, z-score: -1.07; total luciferase, % of control: 60.6; Outcome: inactive

For DNM3 (dynamin 3) #3, what was measured?
total luciferase, z-score: 1.59; total luciferase, % of control: 113; Outcome: inactive

What did the screen give for TTYH2 (tweety family member 2) #1?
total luciferase, z-score: -1.22; total luciferase, % of control: 57.5; Outcome: inactive

What is on record for TTYH2 (tweety family member 2) #2?
total luciferase, z-score: 0.432; total luciferase, % of control: 90.5; Outcome: inactive

With TTYH2 (tweety family member 2) #3, how do the results read?
total luciferase, z-score: -0.228; total luciferase, % of control: 77.3; Outcome: inactive

How did the screen score GSG1L (GSG1 like) #1?
total luciferase, z-score: -1.25; total luciferase, % of control: 56.9; Outcome: inactive

For GSG1L (GSG1 like) #2, what was measured?
total luciferase, z-score: 0.59; total luciferase, % of control: 93.6; Outcome: inactive

Which result is listed for GSG1L (GSG1 like) #3?
total luciferase, z-score: 1.42; total luciferase, % of control: 110; Outcome: inactive

With IP6K3 (inositol hexakisphosphate kinase 3) #1, what was measured?
total luciferase, z-score: 0.356; total luciferase, % of control: 89; Outcome: inactive

With IP6K3 (inositol hexakisphosphate kinase 3) #2, how do the results read?
total luciferase, z-score: -1.5; total luciferase, % of control: 52.1; Outcome: inactive

For IP6K3 (inositol hexakisphosphate kinase 3) #3, what was measured?
total luciferase, z-score: -1.23; total luciferase, % of control: 57.5; Outcome: inactive

For BTBD1 (BTB domain containing 1) #1, what was measured?
total luciferase, z-score: -0.232; total luciferase, % of control: 77.3; Outcome: inactive

What is on record for BTBD1 (BTB domain containing 1) #2?
total luciferase, z-score: 0.216; total luciferase, % of control: 86.2; Outcome: inactive

What is on record for BTBD1 (BTB domain containing 1) #3?
total luciferase, z-score: 1.52; total luciferase, % of control: 112; Outcome: inactive

Entries above whose target name starts with C or c (3):
C11orf42 (chromosome 11 open reading frame 42) #1: total luciferase, z-score = 0.746; total luciferase, % of control = 96.7; Outcome = inactive
C11orf42 (chromosome 11 open reading frame 42) #2: total luciferase, z-score = -0.267; total luciferase, % of control = 76.6; Outcome = inactive
C11orf42 (chromosome 11 open reading frame 42) #3: total luciferase, z-score = 1.12; total luciferase, % of control = 104; Outcome = inactive
